Laboratory results taken from US7303589B2 (L'Oreal S.A., priority 2003, dated 2007).

What was measured:
[1] = Color uptake on chestnut-brown hair, spectrocolorimeter L*a*b*; set-up: species or system human
Description: (§1) The compound was dissolved in deionized water and the pH was adjusted to 7.1 with dilute hydrochloric acid. The concentration of the compound in the medium was 1% by weight.
(§2) The dye solution thus obtained was applied to natural hair (90% white hairs) and chestnut-brown hair (tone height 4) with a bath ratio of 5:1, for 20 minutes at room temperature.
(§3) After dyeing, the hair was rinsed with water and dried at room temperature.
(§4) The color measurements were taken using a spectrocolorimeter (Minolta CM3600d, specular components included, illuminant D65, 10° angle).

[2] = Color uptake on natural hair (90% natural white hairs), spectrocolorimeter L*a*b*; set-up: species or system human
Description: as §1, §2, §3, §4
Color Uptake on Natural Hair (90% of Natural White Hairs): […]

[3] = dyed chestnut-brown hair (tone height 4), 1% by weight in deionized water, pH 7.1, bath ratio 5:1, 20 minutes at room temperature, Minolta CM3600d, D65, 10°
[4] = dyed natural hair (90% white), 1% by weight in deionized water, pH 7.1, bath ratio 5:1, 20 minutes at room temperature, Minolta CM3600d, D65, 10°

## CN(C)c1ccc(/C=C/c2cccc[n+]2CCCCCC[n+]2ccccc2/C=C/c2ccc(N(C)C)cc2)cc1.[Br-].[Br-] [Fluorescent Compound]
[1]; chestnut-brown hair (tone height 4), 1% by weight, pH 7.1, 20 minutes
  uptake of the dye into the hair (in words): satisfactorily taken up into the hair
[1]; [3]
  L*: 23.66
  a*: 4.78
  b*: 5.53
[2]; [4]
  L*: 47.05
  a*: 28.12
  b*: 42.62
[2]; natural hair (90% white), 1% by weight, pH 7.1, 20 minutes
  uptake of the dye into the hair (in words): satisfactorily taken up into the hair
